Where a name gives a salt, the structure may show the parent alone. Some of the results follow. The calls rarely recur for the same compound in another form.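 Kinases were expressed as nanoluciferase fusions in K562 cells and luminescence was read every 4 h between 2 and 18 h as percent of control, DMSO set to 100% and a positive control to 0%. A time point counts as decreased when the signal drops significantly (2 sigma). The hit call is the authors' own, does not follow from the count of time points alone, and its rule is not shown.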
Each molecule was assayed against ZAK (UniProt Q9NYL2) (assay: kinase-Nluc reporter destabilization hit call (1 = scored as downregulated) (binary); higher = compound decreases kinase abundance). Details: K562; 2-18 h.

Chains of the proteins cited; added tags and fusions are not shown. Lines headed by an entry give the natural chain unless they say otherwise; changes in a name come on top.
UniProt P43403: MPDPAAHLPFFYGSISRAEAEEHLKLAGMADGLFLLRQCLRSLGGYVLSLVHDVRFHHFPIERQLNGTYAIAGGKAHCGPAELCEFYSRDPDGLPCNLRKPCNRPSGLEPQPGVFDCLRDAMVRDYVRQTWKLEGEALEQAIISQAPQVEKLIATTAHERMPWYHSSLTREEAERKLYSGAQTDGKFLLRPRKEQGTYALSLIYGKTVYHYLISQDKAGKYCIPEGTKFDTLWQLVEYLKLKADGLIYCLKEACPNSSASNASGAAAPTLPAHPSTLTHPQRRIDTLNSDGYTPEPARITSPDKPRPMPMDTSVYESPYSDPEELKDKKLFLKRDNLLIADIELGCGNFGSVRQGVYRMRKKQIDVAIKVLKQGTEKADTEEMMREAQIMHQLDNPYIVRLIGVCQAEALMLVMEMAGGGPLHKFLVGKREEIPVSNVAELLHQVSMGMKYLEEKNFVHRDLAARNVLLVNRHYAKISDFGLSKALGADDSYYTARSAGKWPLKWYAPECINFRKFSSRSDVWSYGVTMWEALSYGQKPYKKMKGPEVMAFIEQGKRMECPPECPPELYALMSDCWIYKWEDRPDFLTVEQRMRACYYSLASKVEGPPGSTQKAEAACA

kinase-Nluc reporter destabilization hit call, inactive:
O=C(O)/C=C(\CCc1ccc(Cl)cc1)c1ccccc1 (10 µM) 0
Cc1cccc(CC(=O)N2CCc3c2ccc(-c2cn(C)c4ncnc(N)c24)c3F)n1 (10 µM) 0
CN(C)CCn1cc2cc(NC(=O)c3cccc(C(F)(F)F)n3)c(C(C)(C)O)cc2n1 (10 µM) 0
Cc1cc(N2CCOCC2)ccc1Nc1nc(NC2CCCCC2)c2[nH]cnc2n1 (10 µM) 0
COc1c(Nc2ncc(Cl)c(N[C@H]3[C@@H](C(N)=O)[C@@H]4C=C[C@H]3C4)n2)ccc2c1CC[C@@H](N1CCOCC1)CC2 (10 µM) 0
COc1cc2ncnc(Nc3cc(Br)c(O)c(Br)c3)c2cc1OC (2.5 µM) 0
Cc1cncc2cccc(S(=O)(=O)N3CCCNC[C@@H]3C)c12 [H-1152 (dihydrochloride)] (10 µM) 0
Nc1ccc(O)c(C(=O)O)c1 [5-Aminosalicylic Acid] (10 µM) 0
CC(C)(C)S(=O)(=O)c1cc2c(Nc3ccc4scnc4c3)ncnc2cc1OCCOP(=O)(O)O (2 µM) 0
CC(C)(CCCCCC(O)CCCCCC(C)(C)C(=O)O)C(=O)O [Bempedoic acid] (10 µM) 0
Cc1n[nH]c2ncc(C(=O)N3CCC[C@H]3c3ccc(Cl)cc3)cc12 (10 µM) 0
CCOC(=O)c1c(Nc2ccccc2Cl)oc(/C=C2\C=Nc3ncccc32)c1O (10 µM) 0
O=C(CCl)c1c[nH]c2ccccc12 (2.5 µM) 0
O=C(Nc1ccc(F)cc1F)C(NC(=S)Nc1cc(C(F)(F)F)cc(C(F)(F)F)c1)c1ccccc1 (racemic) (2.5 µM) 0
COc1cc2nc(NC3CC3)nc(NC3CCN(C(C)C)CC3)c2cc1OC (10 µM) 0
C=CC(=O)Nc1cc(Nc2nccc(-c3cn(C)c4ccccc34)n2)c(OCC(F)(F)F)nc1N(C)CCNC [AST5902  (trimesylate)] (2.5 µM) 0
CN(C)c1cc[n+](Cc2ccc(OCCOc3ccc(C[n+]4ccc(N(C)C)cc4)cc3)cc2)cc1 (10 µM) 0
COc1cc(N2CCC(O)CC2)ccc1Nc1nc(Nc2ccccc2S(=O)(=O)C(C)C)c2[nH]cnc2n1 (10 µM) 0
Cc1cccc(-c2nn3c(c2-c2ccnc4ccc(C(N)=O)cc24)CCC3)n1 [Galunisertib] (10 µM) 0
C[C@@H]1COC(Nc2ccc3ncnc(Nc4ccc(OCc5nccs5)c(Cl)c4)c3c2)=N1 [Varlitinib] (10 µM) 0
CS(=O)(=O)c1ccc([C@@H](CC2CCCC2)C(=O)Nc2nccs2)cc1 (10 µM) 0
S=C(NCc1ccc2c(c1)OCO2)N1CCN(c2ncnc3c2oc2ccccc23)CC1 [Amuvatinib] (2.5 µM) 0
CCC(F)(F)c1cc(N2CCC(S(C)(=O)=O)CC2)nc2sc(C(N)=O)c(N)c12 (10 µM) 0
O=c1cc(N2CCOCC2)oc2c(-c3cccc4c3sc3ccccc34)cccc12 (10 µM) 0
N#Cc1cnc(Nc2cc(NC[C@H]3CNCCO3)c(C(F)(F)F)cn2)cn1 (10 µM) 0
Nc1ccc(C(=O)Nc2cccc(-c3nc(N4CCOCC4)c4oc5ncccc5c4n3)c2)cn1 (10 µM) 0
COc1cc(N2CCC(N3CCN(C)CC3)CC2)ccc1Nc1ncnc(Nc2ccccc2S(=O)(=O)C(C)C)n1 (10 µM) 0
CO[C@@H]1[C@H](N(C)C(=O)c2ccccc2)C[C@H]2O[C@]1(C)n1c3ccccc3c3c4c(c5c6ccccc6n2c5c31)C(=O)NC4 [Midostaurin] (2.5 µM) 0

The molecules below were run against ZAP70 (UniProt P43403) in the same assay as above. Details: K562; 2-18 h.

kinase-Nluc reporter destabilization hit call, inactive:
O=C(Nc1ccccc1C(=O)NC1CCCCNC1=O)c1cc2ccccc2s1 (configuration not stated) (10 µM) 0
CCOc1cc(=O)[nH]cc1-c1ccc(CC(=O)Nc2cc(C(C)(C)C(F)(F)F)on2)c(F)c1 (10 µM) 0
Cn1cnc2c(F)c(Nc3ccc(Br)cc3F)c(C(=O)NOCCO)cc21 [Binimetinib] (10 µM) 0
Cc1ccc(NC(=O)N2CCN(c3nc(N)nc4sc(-c5cccnc5)nc34)CC2)cc1 [PI4KIII beta inhibitor 3] (10 µM) 0
CC(C1CC1)n1cnc2c(NCc3cccc(C(F)(F)F)c3)nc(NCCN(C)C)nc21 (configuration not stated) (10 µM) 0
CCn1c(N)c(C(=O)NC)c(=O)c2ccc(C#CC(C)(O)COC)nc21 (configuration not stated) (10 µM) 0
N#Cc1cc(N2CCC(C(=O)N3N=CC[C@H]3c3cc(F)cc(F)c3)CC2)ncn1 (10 µM) 0
CN1CCN(Cc2ccc(-c3cn(C4CCC(O)CC4)c4nc(NCCC5CC5)ncc34)cc2)CC1 (configuration not stated) (2.5 µM) 0
COc1ccc(Cl)cc1N(CC(=O)Nc1ccc2c(c1)OCO2)S(=O)(=O)c1ccccc1 (2.5 µM) 0
CS[C@@]1(C(=O)Nc2ccc3[nH]nc(-c4ccc(OC(C)C)nc4)c3c2)CCN(CC(=O)N2CC=C(c3ccc(-c4ncn(C)n4)cc3)CC2)C1 (2.5 µM) 0
CCc1cc(Nc2nccc(-c3c(-c4ccc(OC)c(C(=O)Nc5c(F)cccc5F)c4)nc4ccccn34)n2)c(OC)cc1N1CCC(N2CCN(S(C)(=O)=O)CC2)CC1 (2.5 µM) 0
O=C(O)/C=C(\CCc1ccc(Cl)cc1)c1ccccc1 (10 µM) 0
Cc1cccc(CC(=O)N2CCc3c2ccc(-c2cn(C)c4ncnc(N)c24)c3F)n1 (10 µM) 0
CN(C)CCn1cc2cc(NC(=O)c3cccc(C(F)(F)F)n3)c(C(C)(C)O)cc2n1 (10 µM) 0
Cc1cc(N2CCOCC2)ccc1Nc1nc(NC2CCCCC2)c2[nH]cnc2n1 (10 µM) 0
COc1c(Nc2ncc(Cl)c(N[C@H]3[C@@H](C(N)=O)[C@@H]4C=C[C@H]3C4)n2)ccc2c1CC[C@@H](N1CCOCC1)CC2 (10 µM) 0
COc1cc2ncnc(Nc3cc(Br)c(O)c(Br)c3)c2cc1OC (2.5 µM) 0
Cc1cncc2cccc(S(=O)(=O)N3CCCNC[C@@H]3C)c12 [H-1152 (dihydrochloride)] (10 µM) 0
Nc1ccc(O)c(C(=O)O)c1 [5-Aminosalicylic Acid] (10 µM) 0
CC(C)(C)S(=O)(=O)c1cc2c(Nc3ccc4scnc4c3)ncnc2cc1OCCOP(=O)(O)O (2 µM) 0
CC(C)(CCCCCC(O)CCCCCC(C)(C)C(=O)O)C(=O)O [Bempedoic acid] (10 µM) 0
Cc1n[nH]c2ncc(C(=O)N3CCC[C@H]3c3ccc(Cl)cc3)cc12 (10 µM) 0
CCOC(=O)c1c(Nc2ccccc2Cl)oc(/C=C2\C=Nc3ncccc32)c1O (10 µM) 0
O=C(CCl)c1c[nH]c2ccccc12 (2.5 µM) 0
O=C(Nc1ccc(F)cc1F)C(NC(=S)Nc1cc(C(F)(F)F)cc(C(F)(F)F)c1)c1ccccc1 (racemic) (2.5 µM) 0
COc1cc2nc(NC3CC3)nc(NC3CCN(C(C)C)CC3)c2cc1OC (10 µM) 0
C=CC(=O)Nc1cc(Nc2nccc(-c3cn(C)c4ccccc34)n2)c(OCC(F)(F)F)nc1N(C)CCNC [AST5902  (trimesylate)] (2.5 µM) 0
CN(C)c1cc[n+](Cc2ccc(OCCOc3ccc(C[n+]4ccc(N(C)C)cc4)cc3)cc2)cc1 (10 µM) 0
COc1cc(N2CCC(O)CC2)ccc1Nc1nc(Nc2ccccc2S(=O)(=O)C(C)C)c2[nH]cnc2n1 (10 µM) 0
Cc1cccc(-c2nn3c(c2-c2ccnc4ccc(C(N)=O)cc24)CCC3)n1 [Galunisertib] (10 µM) 0
C[C@@H]1COC(Nc2ccc3ncnc(Nc4ccc(OCc5nccs5)c(Cl)c4)c3c2)=N1 [Varlitinib] (10 µM) 0
CS(=O)(=O)c1ccc([C@@H](CC2CCCC2)C(=O)Nc2nccs2)cc1 (10 µM) 0
S=C(NCc1ccc2c(c1)OCO2)N1CCN(c2ncnc3c2oc2ccccc23)CC1 [Amuvatinib] (2.5 µM) 0
CCC(F)(F)c1cc(N2CCC(S(C)(=O)=O)CC2)nc2sc(C(N)=O)c(N)c12 (10 µM) 0
O=c1cc(N2CCOCC2)oc2c(-c3cccc4c3sc3ccccc34)cccc12 (10 µM) 0
N#Cc1cnc(Nc2cc(NC[C@H]3CNCCO3)c(C(F)(F)F)cn2)cn1 (10 µM) 0
Nc1ccc(C(=O)Nc2cccc(-c3nc(N4CCOCC4)c4oc5ncccc5c4n3)c2)cn1 (10 µM) 0
COc1cc(N2CCC(N3CCN(C)CC3)CC2)ccc1Nc1ncnc(Nc2ccccc2S(=O)(=O)C(C)C)n1 (10 µM) 0
CO[C@@H]1[C@H](N(C)C(=O)c2ccccc2)C[C@H]2O[C@]1(C)n1c3ccccc3c3c4c(c5c6ccccc6n2c5c31)C(=O)NC4 [Midostaurin] (2.5 µM) 0

Source: the supplement of paper PMC12823440, “Inhibitors supercharge kinase turnover through native proteolytic circuits” (Nature, 2025)
